Source: PubChem BioAssay AID504834 (National Center for Advancing Translational Sciences (NCATS), 2011)
Screen size: about 320,000 compounds; about 22,000 (6.9%) were called active. The shares of active, inactive and inconclusive entries below differ from those in the screen. The call rests on the fitted dose curve; in most records, active means well fitted inhibition curve with a large enough effect; inconclusive means small, poorly fitted or top-dose-only effect, or another doubt; inactive means no such curve, though single readings can be large or run the other way. Where the call is inconclusive, the potency comes from a doubtful curve fit.

assay: Primary qHTS for delayed death inhibitors of the malarial parasite plastid, 96 hour incubation; details: P. falciparum luciferase reporter growth; series mostly up to 28.7 µM; activity change, negative = inhibition: at the top concentration
Method in brief: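 Readout is luminescence from an integrated firefly luciferase in P. falciparum. Red cells, 2% hematocrit and 0.05% parasitemia final, were cultured with compound through two parasite generations (96 hours) at 37 C, 5% CO2.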
On the % scale 0 is the no-effect control and ±100 the full control effect; potency means the concentration at half of the fitted maximal effect.

SMILES	Potency	activity change, negative = inhibition
O=C(NCc1nc2ccccc2[nH]1)C1=C[C@H](C2CC2)C[C@H](OCCCCO)O1	inconclusive: 4.15 µM [inhibitor, single point]	
C/C(=N\NC(=O)c1ccc(CN2CCOCC2)cc1)c1cccc([N+](=O)[O-])c1	inconclusive: 9.28 µM [inhibitor, single point]	
Cc1cc(C(=O)O)cc(S(=O)(=O)Nc2ccccc2C(=O)NC2CC2)c1C		inactive: 68.6%
COCCCNC(=O)CN1C(=O)/C(=C/c2ccccc2C)Sc2ccccc21	inconclusive: 11.7 µM [inhibitor, single point]	
Cc1ccccc1NC(=O)C(C)SCc1ccccc1 (stereo not drawn)		inactive: -18.4%
O=C(C(=O)N1CCCCC1)c1cn(CC(=O)N2CCCCCC2)c2ccccc12	active: 11.7 µM	
O=C(NCCC1=CCCCC1)c1cc(S(=O)(=O)N2CCCCC2)ccc1Cl	inconclusive: 9.28 µM [inhibitor, partial curve]	
FC(F)(F)c1cccc(N/N=C/c2ccccc2)c1	inconclusive: 18.5 µM [inhibitor, partial curve, poor fit]	
CCOc1ccccc1CN1CCN(Cc2ccc(C)o2)C(CCO)C1 (stereo not drawn)	inconclusive: 13.1 µM [inhibitor, single point]	
O=[N+]([O-])c1ccccc1/C=C\C=N\N1CCN(c2ccccc2)CC1	inconclusive: 0.928 µM [inhibitor, partial curve, poor fit]	
COc1ccc(OCCn2cc(/C(N)=N/O)c3ccccc32)cc1	inconclusive: 18.5 µM [inhibitor, single point]	
Cc1cccc(CCNc2nc3ccc(C)cc3n3cnnc23)c1	inconclusive: 8.28 µM [inhibitor, partial curve]	
COc1ccc(C2c3ccc4ccccc4c3Oc3ncn(Cc4ccco4)c(=N)c32)cc1OC (stereo not drawn)	inconclusive: 10.4 µM [inhibitor, partial curve, poor fit]	
O=C1NC(=Nc2ccc(Cl)cc2)/C(=C/c2ccco2)S1	inconclusive: 18.5 µM [inhibitor, single point]	
Cn1c(=O)[nH]c2ccc([N+](=O)[O-])nc21		inactive: 40.9%
CN(C)S(=O)(=O)c1ccc(C(=O)Nc2nnc(-c3ccc4c(c3)CCCC4)o2)cc1		inactive: -5.4%
CN(CC(=O)Nc1ccc(F)cc1)C(=O)c1cn(-c2ccccc2)nc1-c1cccs1	inconclusive: 0.185 µM [inhibitor, full curve, poor fit]	
Cc1cn([C@H](C(=O)NCCCCCCCCCCC(=O)N2CCN(C(=O)OC(C)(C)C)CC2)[C@@H](C)O)nn1	active: 9.28 µM	
O=C(CSCc1cccc(Br)c1)N=Nc1c(O)[nH]c2ccccc12		inactive: -21.5%
CCCCN(CC)CCCNC(=O)C1CCN(c2ncnc3c2sc2cccc(F)c23)CC1	inconclusive: 11.7 µM [inhibitor, single point]	
O=C(c1nc2ccc(Cl)cn2c1CN1CCC(O)CC1)N1CCc2ccccc2C1		inactive: -23.8%
COc1ccc(NC(=O)c2ccc(N3C(=O)C4CC=C(Cl)CC4C3=O)cc2)cc1 (stereo not drawn)	inconclusive: 2.08 µM [inhibitor, partial curve, poor fit]	
COC(=O)N/N=C1/C/C(=N\NC(=O)OC)c2ccccc21	inconclusive: 0.0023 µM [inhibitor, full curve, poor fit]	
CN(C)c1ccc(-c2nc3ccccc3c(=O)[nH]2)cc1		inactive: 67.5%
O=C1/C(=C/c2ccco2)CCC1C1CCCC1 (stereo not drawn)	inconclusive: 4.65 µM [inhibitor, partial curve, poor fit]	

SMILES	Potency	activity change, negative = inhibition
COc1cccc(OC)c1OC(=O)c1cnccn1		inactive: 31.5%
O=C(NCC(c1ccco1)N1CCCC1)c1cn(Cc2ccccc2)nc1-c1ccccc1 (stereo not drawn)	active: 9.28 µM	
Fc1ccc(-c2csc(N3CCSCC3)n2)cc1		inactive: 106%
Cc1c(C(=O)NCCc2ccccc2)oc2ccc(S(=O)(=O)N3CCC4(CC3)OCCO4)cc12	inconclusive: 18.5 µM [inhibitor, single point]	
Cn1c(N2CCOCC2)c(C#N)c2ccccc21		inactive: 24.1%
CCN(CC(=O)Nc1ccccc1OC)C(=O)c1ccc(NC(=O)c2cccs2)cc1	inconclusive: 13.1 µM [inhibitor, partial curve, poor fit]	
COc1ccc(C(=O)NCC(=O)N2CCN(c3ccc(Cl)cc3)CC2)cc1		inactive: -29.1%
COc1cccc(-n2c(=O)c3ccccc3n3c(=S)[nH]nc23)c1		inactive: 22.4%
CCCn1c(=O)[nH]c(=O)c2c1nc(-c1ccc(OC(F)(F)C(F)C(F)(F)F)cc1)n2CCOC (stereo not drawn)	inconclusive: 0.0029 µM [inhibitor, full curve, poor fit]	
Cc1cc(CC(C)C)n(-c2nc3ccccc3c(=O)n2OCC(N)=O)n1	inconclusive: 5.86 µM [inhibitor, partial curve, poor fit]	
Cc1ccc(N2CC(C(=O)NCc3cccs3)CC2=O)cc1C (stereo not drawn)	inconclusive: 14.7 µM [inhibitor, partial curve]	
O=C(Nc1cccc2ncccc12)c1cc(Br)ccc1Cl	inconclusive: 11.7 µM [inhibitor, partial curve, poor fit]	
CC1CN(CC(=O)NCc2ccccc2)CC(C)O1 (stereo not drawn)	inconclusive: 18.5 µM [inhibitor, single point]	
O=c1cc(NCCO)c2ccccc2o1		inactive: 33.5%
O=C1N=C(N2CCOCC2)CS1	inconclusive: 18.5 µM [inhibitor, single point]	
CCOc1cc(C(=O)Nc2ccc(N3CCOCC3)cc2)cc(Br)c1OC	inconclusive: 0.117 µM [inhibitor, full curve, poor fit]	
COc1cccc(OC)c1C(=O)N1CCN(C(=O)c2ccc(-c3ccccc3)cc2)CC1	inconclusive: 4.65 µM [inhibitor, single point]	
CN(Cc1c(F)cccc1Cl)C(=O)CCc1c[nH]c2ccccc12	inconclusive: 18.5 µM [inhibitor, single point]	
O=c1c2cc3ccccc3n2cnn1Cc1ccccc1F	inconclusive: 18.5 µM [inhibitor, single point]	
CC(=O)c1c(OC(=O)c2ccccc2Br)ccc2c(C)cc(=O)oc12	inconclusive: 14.7 µM [inhibitor, single point]	
Cc1nn(Cc2ccccc2)c(C)c1CNC(=O)CN=C1NS(=O)(=O)c2ccccc21		inactive: -2.56%
O=C(Cn1c(=O)c2cccn2c2ccccc21)NCCc1ccccc1	inconclusive: 10.4 µM [inhibitor, partial curve, poor fit]	
O=C(NCc1ccccc1)c1ccc(NC(=O)c2ccco2)cc1		inactive: 46.1%
COCCNc1nnc(SCC(=O)Nc2cc(-c3ccccc3)nn2-c2ccccc2)s1	inconclusive: 10.4 µM [inhibitor, single point]	
CCNC(=S)N/N=C/c1ccccc1[N+](=O)[O-]	inconclusive: 18.5 µM [inhibitor, single point]	

SMILES	Potency	activity change, negative = inhibition
CCc1ccc(-c2csc3[n+]2CCN3C(C)=O)cc1	inconclusive: 0.738 µM [inhibitor, full curve]	
Cc1nn(C)c(Cl)c1/C=N/OC(=O)c1ccc(F)cc1		inactive: 45.6%
CC(=O)c1ccc(OCC(O)CN2CCOCC2)cc1 (stereo not drawn)	inconclusive: 18.5 µM [inhibitor, single point]	
C=CCN(C)CC/C=C1\c2ccccc2CSc2ccccc21	inconclusive: 13.1 µM [inhibitor, partial curve, poor fit]	
CCOC(=O)C1Cn2c(nc3c(c2=O)C(C)(C)Cc2ccccc2-3)S1 (stereo not drawn)	inconclusive: 8.28 µM [inhibitor, single point]	
Cc1c(Cl)cccc1NC(=O)c1ncn[nH]1		inactive: 27.2%
CCOc1cc(CNc2ccc(O)cc2)ccc1OCc1ccc(Cl)cc1Cl	inconclusive: 2.94 µM [inhibitor, partial curve, poor fit]	
CCC1CCCCN1CC(=O)c1ccc(OC(F)F)cc1 (stereo not drawn)	inconclusive: 9.28 µM [inhibitor, single point]	
Cc1ccc2[nH]c(-c3cccc(F)c3)cc(=O)c2c1	active: 4.15 µM	
Cc1cccc(N(CC(=O)NCCc2ccccc2)C(=O)CCC(=O)Nc2ccccn2)c1C		inactive: -10.5%
O=S(=O)(N[C@H]1C[C@@H](NS(=O)(=O)OCC(Cl)(Cl)Cl)C2CCCCC21)OCC(Cl)(Cl)Cl (stereo partly drawn)		inactive: -23.3%
COc1ccc(CN(C)Cc2nc(Cc3cccc(F)c3)no2)c2cccnc12	inconclusive: 18.5 µM [inhibitor, single point]	
CCOC(=O)c1cc2c(ccn2C)n1Cc1ccccc1C	inconclusive: 13.1 µM [inhibitor, single point]	
O=C1OC(c2ccc(Cl)cc2)/C(=C(/O)c2ccccc2)C1=O (stereo not drawn)		inactive: 102%
CC(=O)Nc1ccc(S(=O)(=O)C(C#N)c2nc3ccccc3nc2NCCN2CCOCC2)cc1 (stereo not drawn)	inconclusive: 18.5 µM [inhibitor, single point]	
O=C(c1c(F)cccc1F)N1CCCC(c2nc(-c3cccs3)no2)C1 (stereo not drawn)	active: 8.28 µM	
COc1ccc(S(=O)(=O)N2CCN(C)CC2)cn1	inconclusive: 18.5 µM [inhibitor, single point]	
CCOC(=O)CSc1nc2ccc(C)cc2n2cnnc12		inactive: -4.99%
CSc1nnc2c3cc(F)ccc3n(Cc3ccccc3)c2n1		inactive: 20.4%
Cn1c(CNc2ccc(F)cc2)nc2ccccc21		inactive: -29.3%
c1cncc(C2CCCCN2)c1 (stereo not drawn)		inactive: 26.2%
CCOC(=O)Cn1c(=NC(=O)C(C)C)sc2c(C)cc(C)cc21	inconclusive: 2.33 µM [inhibitor, full curve, poor fit]	
COC(=O)NNC(=O)COc1ccc(Cl)cc1		inactive: -0.596%

Shown with bars between the fields: entries from further up.
SMILES | Potency | activity change, negative = inhibition
O=C1/C(=C/c2ccco2)CCC1C1CCCC1 (stereo not drawn) | inconclusive: 4.65 µM [inhibitor, partial curve, poor fit] | 
COc1cccc(OC)c1OC(=O)c1cnccn1 |  | inactive: 31.5%
O=C(NCC(c1ccco1)N1CCCC1)c1cn(Cc2ccccc2)nc1-c1ccccc1 (stereo not drawn) | active: 9.28 µM | 
Fc1ccc(-c2csc(N3CCSCC3)n2)cc1 |  | inactive: 106%
Cc1c(C(=O)NCCc2ccccc2)oc2ccc(S(=O)(=O)N3CCC4(CC3)OCCO4)cc12 | inconclusive: 18.5 µM [inhibitor, single point] | 
Cn1c(N2CCOCC2)c(C#N)c2ccccc21 |  | inactive: 24.1%
CCN(CC(=O)Nc1ccccc1OC)C(=O)c1ccc(NC(=O)c2cccs2)cc1 | inconclusive: 13.1 µM [inhibitor, partial curve, poor fit] | 
COc1ccc(C(=O)NCC(=O)N2CCN(c3ccc(Cl)cc3)CC2)cc1 |  | inactive: -29.1%
COc1cccc(-n2c(=O)c3ccccc3n3c(=S)[nH]nc23)c1 |  | inactive: 22.4%
CCCn1c(=O)[nH]c(=O)c2c1nc(-c1ccc(OC(F)(F)C(F)C(F)(F)F)cc1)n2CCOC (stereo not drawn) | inconclusive: 0.0029 µM [inhibitor, full curve, poor fit] | 
Cc1cc(CC(C)C)n(-c2nc3ccccc3c(=O)n2OCC(N)=O)n1 | inconclusive: 5.86 µM [inhibitor, partial curve, poor fit] | 
Cc1ccc(N2CC(C(=O)NCc3cccs3)CC2=O)cc1C (stereo not drawn) | inconclusive: 14.7 µM [inhibitor, partial curve] | 
O=C(Nc1cccc2ncccc12)c1cc(Br)ccc1Cl | inconclusive: 11.7 µM [inhibitor, partial curve, poor fit] | 
CC1CN(CC(=O)NCc2ccccc2)CC(C)O1 (stereo not drawn) | inconclusive: 18.5 µM [inhibitor, single point] | 
